{"source": "PubChem BioAssay AID1053208 (Peter MacCallum Cancer Centre, 2014)", "purpose": "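Find knock-downs that sensitise mouse osteosarcoma cells to doxorubicin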 (primary screen)", "system": "mouse osteosarcoma cells, early-passage culture from an engineered mouse model of fibroblastic bone tumour", "knock-down reagent": "siRNA pool against mouse genes, 40 nM", "timing": "about 120 h (48 h before drug, then 72 h with drug)", "conditions": "doxorubicin 100 nM for 72 h, roughly 30-40% inhibitory dose", "measured": "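Luminescent ATP signal taken as viability with or without 100 nM doxorubicin for 72 h; mean of two wells set against non-targeting siRNA and turned into robust z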", "direction": "viability z-score with doxorubicin: higher = more viable cells under doxorubicin; viability z-score without drug: higher = more viable cells with knock-down alone", "hit rule": "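a pool counts as active when its viability z-score with doxorubicin is -2 or below and its z-score without drug lies between -2 and 2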", "note": "The whole screen tested about 17,000 reagents; shown is a random part of them. Of all reagents, 788 (4.7%) were called active. 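Calls rest on z-score classes alone; an extra cut-off of viability at most 70% of control was not applied to them.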 Further read-outs or replicates are left out here."}
{"target gene": "Ptrh1 (peptidyl-tRNA hydrolase 1 homolog)", "combined z-score class": "no change with or without drug", "viability z-score with doxorubicin": -0.67, "viability z-score without drug": 1.01, "Call": "inactive"}
{"target gene": "Actl11 (actin-like 11)", "combined z-score class": "no change with or without drug", "viability z-score with doxorubicin": 0.79, "viability z-score without drug": 0.51, "Call": "inactive"}
{"target gene": "Or2g1 (olfactory receptor family 2 subfamily G member 1)", "combined z-score class": "no change with or without drug", "viability z-score with doxorubicin": 0.45, "viability z-score without drug": 1.18, "Call": "inactive"}
{"target gene": "Or4f7 (olfactory receptor family 4 subfamily F member 7)", "combined z-score class": "no change with or without drug", "viability z-score with doxorubicin": -0.67, "viability z-score without drug": -0.17, "Call": "inactive"}
{"target gene": "Tmem107 (transmembrane protein 107)", "combined z-score class": "no change with or without drug", "viability z-score with doxorubicin": 0, "viability z-score without drug": 1.52, "Call": "inactive"}
{"target gene": "Eif4ebp3", "combined z-score class": "no change with or without drug", "viability z-score with doxorubicin": -0.45, "viability z-score without drug": 1.85, "Call": "inactive"}
{"target gene": "Sp1 (trans-acting transcription factor 1)", "combined z-score class": "no change with or without drug", "viability z-score with doxorubicin": -0.45, "viability z-score without drug": 0.51, "Call": "inactive"}
{"target gene": "Kcnk1 (potassium channel, subfamily K, member 1)", "combined z-score class": "no change with or without drug", "viability z-score with doxorubicin": -0.22, "viability z-score without drug": -0.51, "Call": "inactive"}
{"target gene": "Hc (hemolytic complement)", "combined z-score class": "no change with or without drug", "viability z-score with doxorubicin": 0.45, "viability z-score without drug": 0.67, "Call": "inactive"}
{"target gene": "Or52m2 (olfactory receptor family 52 subfamily M member 2)", "combined z-score class": "no change with or without drug", "viability z-score with doxorubicin": -0.11, "viability z-score without drug": -0.17, "Call": "inactive"}
{"target gene": "Ltk (leukocyte tyrosine kinase)", "combined z-score class": "no change with or without drug", "viability z-score with doxorubicin": 0.34, "viability z-score without drug": 0.34, "Call": "inactive"}
{"target gene": "Sipa1l1 (signal-induced proliferation-associated 1 like 1)", "combined z-score class": "no change with or without drug", "viability z-score with doxorubicin": 0.9, "viability z-score without drug": 1.35, "Call": "inactive"}
